Test results from patent publication US6451837B1, “Neuroprotective effects of mitogen-activated protein kinase (MAPK) cascade inhibitors” (priority 1999, dated 2002).
For at least one compound, name, drawing or mass did not settle the structure.

System: cultured hippocampal tissue explants
Assay: NMDA-induced cell death in cultured hippocampal slices, propidium iodide fluorescence
Assay type: cell-based, Wistar rat
Details: treated 2 hours prior to NMDA 50 μM; PD098059 30-90 μM; wortmannin 1-5 μM; FIG. 2-4

Compound: COC[C@H]1OC(=O)c2coc3c2[C@@]1(C)C1=C(C3=O)[C@@H]2CCC(=O)[C@@]2(C)C[C@H]1OC(C)=O [wortmannin]
- reduction of NMDA toxicity: did not reduce NMDA toxicity
